Measurements as given in publication PMC9491836.

Assays:
[1] = target: response regulator ChrA (BACTH fusion) (Corynebacterium glutamicum ATCC 13032) (UniProt Q8NP17); test: two-hybrid; BACTH quantitative β-galactosidase assay (Miller units) in E. coli BTH101; T25 and T18 fusions (histidine kinases as C-terminal fusions); triplicates in LB with 0.5 mM IPTG, ONPG
[2] = target: response regulator ChrA (BACTH fusion) (Corynebacterium glutamicum ATCC 13032) (UniProt Q8NP17); test: two-hybrid; BACTH plate assay in E. coli BTH101; T25 and T18 fusions (histidine kinases as C-terminal fusions); spotted on LB with X-Gal, kanamycin, ampicillin, 0.5 mM IPTG, about 24 h at 30°C; blue colonies mean interaction

## histidine kinase ChrS (C-terminal BACTH fusions) (from UniProt Q8NP16)
[1]
  binding: binds
[2]
  binding: binds

Results are given in words; binding and its absence hold for the method and conditions named. Binding can be weak; no strength is given.
